## Primary screen of a compound library

Data taken from ChEMBL document CHEMBL3988442, “University of Dundee, Small-Polar-MMV Screening Library” (2021).

Mtb growth Cornell: 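Whole-cell assay for inhibitors of Mycobacterium tuberculosis growth, labelled Cornell in the record; the read-out is not stated. The concentration is filed as 10 mM, unlikely as a test dose, so the dose is not known. The record gives no direction; compounds strong in two other growth screens of this library score well above the rest, so higher reads as stronger inhibition. Size under these conditions: about 53,000 compounds, about 900 of them at 50% or above in at least one test.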
Mtb heat-shock: 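Assay on Mycobacterium tuberculosis, filed only as a heat shock assay from Cornell; the read-out is not stated. The concentration is filed as 10 mM, unlikely as a test dose, so the dose is not known. Higher reads as stronger inhibition (inferred: compounds with an IC50 in retests scored well above the rest). Of about 69,000 compounds tested this way, about 930 (1.4%) reached 50% or more in at least one test.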

Results are given as percent effect. The controls that fix the scale are not given in the record; negative values are as filed. The compounds are a random part of those screened. A dash means the value is not listed here; it may have been measured.

structure | Mtb growth Cornell | Mtb heat-shock
Cc1ccc(CN(CCCn2ccnc2)Cc2cc(F)ccc2F)s1.O=C(O)CC(O)(CC(=O)O)C(=O)O | 7.491% | 105.9%
COCCCNS(=O)(=O)c1cc(C)sc1C | -5.41% | 12.93%
[H][C@@]12CCCC[C@]1([H])C(=O)N(c1cnn(Cc3cccc(F)c3)c1)C2=O | 24.19% | -10.23%
CNC(=O)C1CCN(c2nc3nc[nH]c(=O)c3s2)CC1 | 11.53% | 0.2454%
Nc1ncc2c(n1)CN(C1CCCC1)C2=O | 100.2% | 101.8%
CC(=O)N1CCc2nnc(C3CCCN3CC3CCCCC3)n2CC1 (stereo not shown) | -2.776% | 3.716%
CCCc1nnc(NCCCn2nc(C)c(Cl)c2C)o1 | -2.911% | 35.64%
CCC1(CC)CC(=O)N(CC(O)c2cc(F)ccc2F)C1=O (stereo not shown) | -13.45% | 1.828%
COc1ccccc1C1CNCCN1C(=O)c1ccc(F)cc1 (stereo not shown) | 4.79% | -18.07%
COc1cc(CN2CCCC23CCN(c2ccccn2)CC3)ccc1F | -32.93% | -8.417%
Cc1ccc(CN2C[C@@H](c3ccccc3)[C@@]3(CCNC3=O)C2)o1 | 2.779% | 10.02%
COCCc1noc(Cn2ccc3ccccc3c2=O)n1 | -0.8183% | -3.435%
CCCN1CCC2(C1)c1ccccc1S(=O)(=O)N2Cc1ccc(F)cc1 (stereo not shown) | -10.71% | -21.72%
CC(C)(C)c1ncc(C(=O)NCc2ccccc2CN2CCCC2)s1 | 19.41% | -3.133%
[H][C@@]12CCN(C(=O)NCc3cccc(F)c3)C[C@]1([H])[C@@H](CN(C)C)OC2 | 1.838% | -0.7159%
O=S(=O)(c1ccc(Cl)s1)N1CCCC(c2ncc[nH]2)C1 (stereo not shown) | -8.446% | -0.7097%
CCc1cnc(C)nc1NCc1nc(COC)no1 | -20.07% | -4.941%
CC(CCS(C)(=O)=O)NC(=O)NCc1ccc2c(c1)CCC2 (stereo not shown) | 7.426% | 8.326%
Cc1cc(NC(=O)CCN2CCCCC2Cn2cccn2)no1 (stereo not shown) | -51.34% | 7.595%
Cc1nccn1-c1cc(CNS(=O)(=O)N2CCCC(C)C2)ccn1 (stereo not shown) | -6.531% | -16.04%
O=C(c1csc(-c2ncccn2)n1)N1CCN(C2CCCC2)CC1 | 7.506% | -16.23%
COc1cc(CN(C)Cc2cccnc2)c(SC)cc1OC | - | -24.01%
Cc1cc(=O)c(C(=O)N(C)Cc2ccc(Cl)c(F)c2)c[nH]1 | -41.01% | 6.226%
CN(C)S(=O)(=O)N1CCC(OCCCc2ccccc2)C1 (stereo not shown) | 37.82% | -7.657%
Cn1ncnc1CCNC(=O)c1cc(Cl)c(Cl)n1C | 17.37% | 0.7998%
O=C(O)C(F)(F)F.O=C(O)C(F)(F)F.c1cncc(OCc2noc3c2CN(Cc2ccsc2)CC3)c1 | 14.03% | -32.27%
COCc1nc(CNC(=O)C(C)n2ccnc2C(C)C)no1 (stereo not shown) | -5.164% | 12.44%
COc1ccccc1CC(C)CC(=O)N(C)Cc1cc(C)on1 (stereo not shown) | 0.7249% | -11.89%
COc1ccc(CN2CCn3cc(CNC(=O)CC4CC4)nc3C2)cc1.O=C(O)C(F)(F)F | 30.34% | 3.385%
Cc1ccc(NC(=O)CNc2cccc3c2CCCC3)c(Br)c1 | 51.04% | 11.01%
Cc1c(COC(C)C)cccc1NC(=O)N1CCCC(CO)C1 (stereo not shown) | - | -6.346%
CCN(CCCNC(=O)c1cc2cccc(F)c2o1)S(C)(=O)=O | -6.757% | -5.437%
CC[C@H](C)Cn1nc(C2CCNCC2)n(Cc2ccccc2)c1=O | - | 0.3331%
O=C1OCCN1Cc1cc(C(F)(F)F)ccc1F | 25.38% | 3.712%
Cc1cccc(-n2ncc3c2CCCC3NCC(C)(C)CO)c1C (stereo not shown) | -3.718% | -21.47%
COc1ccc(Br)c(C(=O)NCC2CC2)c1 | -19.2% | 4.323%
COCC(c1cccc(C(F)(F)F)c1)N(C)C(=O)c1ccco1 (stereo not shown) | - | -22.07%
COCCn1cc(C(=O)NC2CCS(=O)(=O)C2)c2ccccc2c1=O (stereo not shown) | 10.03% | 0.515%
CC(=O)N1CCC(c2cnc(-c3c(C)nn(C)c3C)cn2)CC1 | -8.791% | 7.096%
O=C(Cc1ccc2c(c1)OCCO2)NC1CC1 | - | 0.8117%
CC1CC2(CCN(C(=O)c3c[nH]cn3)CC2)c2ccccc21 (stereo not shown) | 24.33% | 7.232%
Cc1cc(NC(=O)CNc2cccc(OC(F)F)c2C)n(C)n1 | 15.07% | -16.37%
COc1cc2[nH]c(=O)c(CN3CCC[C@@H]3C(N)=O)cc2c(OC)c1OC | -26.61% | -8.229%
O=C(O)[C@@H]1CCN(C(=O)c2ccccn2)[C@@H]1c1ccc(F)cc1 | -18.87% | 23.1%
CS(=O)(=O)c1ccc(NC(=O)NC2(c3ccccc3)CCC2)cc1 | 3.444% | 18.49%
Cc1ccc(N2CC3(COCCN(Cc4ccccn4)C3)OCC2=O)s1.O=C(O)C(F)(F)F.O=C(O)C(F)(F)F (stereo not shown) | 16.71% | 8.616%
CN1CCC(c2cccc(Cc3ccccc3)n2)CC1 | -38.33% | -8.917%
CC(CN1CCOCC1)OC(=O)c1cccc2cn[nH]c12 (stereo not shown) | -1.574% | 1.308%
Cc1n[nH]c2c1C(c1ccncc1)SCC(=O)N2 (stereo not shown) | -2.27% | 8.424%
Cc1cnn(CC2CCCN2C(=O)c2ccccc2-n2cccn2)c1 (stereo not shown) | -18.87% | -11.46%
CCOCCN1CCN(Cc2cccc(C(=O)N(C)C)c2)CC1CC (stereo not shown) | 15.34% | 0.22%
CN1CC(Oc2ccccc2)=NC(SCC(=O)Nc2ccc(Cl)cc2)=N1 | - | -8.926%
Cc1nc(C2CCCN(C(=O)c3cc(Cl)c[nH]3)C2)sc1C (stereo not shown) | - | 4.147%
CC[C@@H]1N(Cc2ccoc2)CCC[C@]12CCC(=O)N2CCOC.O=C(O)C(F)(F)F | - | -21.47%
O=C(Nc1cnn(-c2ccccc2Cl)c1)NC1CCC(O)CC1 (stereo not shown) | - | -9.193%
CN1CCN(Cc2cn3c(n2)CN(Cc2ccc(F)cc2)CC3)CC1.O=C(O)C(F)(F)F.O=C(O)C(F)(F)F.O=C(O)C(F)(F)F | 2.775% | 15.32%
Cn1cc(C(=O)NCC2CCN(C(=O)NCC(F)(F)F)CC2)cn1 | - | -0.03272%
O=C(c1cccc2c1OCCO2)N1CCCCC1Cn1cccn1 (stereo not shown) | 23.3% | 7.297%
CC(C)c1ncncc1C(=O)N1CCN(Cc2cscn2)CC1 | 3.08% | -20.54%
Cc1cc(C(=O)N2CCCC2)ccc1NCCO | - | 11.4%
CC(=O)c1cn(CC(=O)NC(C(=O)O)C(C)C)c2ccccc12 (stereo not shown) | 12.99% | 13.69%
O=C(c1ccc(-n2cccn2)cc1Cl)N1CCCC(O)(CO)C1 (stereo not shown) | 29.26% | 1.702%
COc1ccc(C2Nc3cc(Cl)ccc3C3=NCCN32)cc1CO (stereo not shown) | -37.76% | 2.83%
CCNC(=O)[C@@H]1C[C@H](N)CN1c1cc(C(F)(F)F)nc(N(C)C)n1 | - | -140.1%
[H][C@]12CN(C3CCC3)CCN1C(=O)N(C1CCCCC1)C2 | -2.744% | -32.59%
O=C(O)C(F)(F)F.[H][C@@]12CCN(Cc3ccc(F)cc3)CC[C@]1([H])[C@@H](COC)CNC2=O | 12.25% | -48.65%
CC(C)C1SCC(=O)Nc2c1cnn2-c1ccc(F)cc1 (stereo not shown) | 42.79% | -2.718%
CS(=O)(=O)NC1(CCc2ccc(NC(=O)C3CC3)nc2)CCCCC1 | -11.31% | 16.11%
Cc1nonc1NC(=O)c1ccc(F)c(COCC2CC2)c1 | -35.22% | 5.514%
CCOc1ccc(C(F)(F)F)cc1NCc1nc(C)c(C)o1 | 13.82% | -25.05%
O=C(NCC1Cn2nnc(-c3ccccc3)c2CO1)c1ccc[nH]1 (stereo not shown) | -1.477% | -25%
COc1cccc(COCC(=O)N2CCCC2Cn2cccn2)c1 (stereo not shown) | - | 1.88%
CCn1ccnc1CN1CCCN(C(=O)c2cc(Cl)c[nH]2)CC1 | 10.2% | 18.43%
O=C(O)C(F)(F)F.[H][C@@]12CCN(c3cnccn3)C[C@]1([H])CN(C(=O)c1cnccn1)C2 | -8.972% | 4.414%
c1ccc(CCN2CCN(c3ccc4nncn4n3)CC2)cc1 | - | 1.13%
CCS(=O)(=O)N1CCc2c(COC)cncc2C1 | -21.6% | -25.77%
CN(C)S(=O)(=O)NCc1cccnc1Oc1ccc(F)cc1F | - | -13.26%
CC(C)(C)CN1CC(O)CN(C(=O)c2cccc(C(F)(F)F)c2)CC1=O (stereo not shown) | 4.795% | 51.48%
CCn1cnnc1C1CCN(C(=O)c2ccc(C(=O)OC)s2)CC1 | 11.78% | 7.37%
[H][C@]12CCCCN1CCC[C@H]2CNC(=O)Cn1ccc2ccc(Br)cc21 | - | 0.7116%
c1ccc(CNC[C@H]2Cn3ccnc3CO2)cc1 | -0.3951% | -42.5%
CCn1cc(N2Cc3nc(N4CCC(C)CC4)ncc3C2=O)cn1 | - | -13.85%
O=C(O)C(F)(F)F.O=C(O)C(F)(F)F.[H][C@@]12COC[C@@H](CC(=O)NCc3cccnc3)[C@]1([H])CN(C1CCC1)C2 | -14.69% | 23.94%
COc1ccccc1CCNC(=O)CC1(Cn2cnnn2)CCCCC1 | 0.3046% | 13.26%

The first 6 entries again:

{"structure": "Cc1ccc(CN(CCCn2ccnc2)Cc2cc(F)ccc2F)s1.O=C(O)CC(O)(CC(=O)O)C(=O)O", "Mtb growth Cornell": 7.491, "Mtb heat-shock": 105.9}
{"structure": "COCCCNS(=O)(=O)c1cc(C)sc1C", "Mtb growth Cornell": -5.41, "Mtb heat-shock": 12.93}
{"structure": "[H][C@@]12CCCC[C@]1([H])C(=O)N(c1cnn(Cc3cccc(F)c3)c1)C2=O", "Mtb growth Cornell": 24.19, "Mtb heat-shock": -10.23}
{"structure": "CNC(=O)C1CCN(c2nc3nc[nH]c(=O)c3s2)CC1", "Mtb growth Cornell": 11.53, "Mtb heat-shock": 0.2454}
{"structure": "Nc1ncc2c(n1)CN(C1CCCC1)C2=O", "Mtb growth Cornell": 100.2, "Mtb heat-shock": 101.8}
{"structure": "CC(=O)N1CCc2nnc(C3CCCN3CC3CCCCC3)n2CC1", "stereo": "stereo not shown", "Mtb growth Cornell": -2.776, "Mtb heat-shock": 3.716}